Data reported in the supplement of paper PMC12819154, “High-throughput peptide-centric local stability assay extends protein–ligand identification to membrane proteins, tissues and bacteria” (Nature Structural & Molecular Biology, 2025).
The other results are listed elsewhere or left out. Most values lie at the level of the controls, where differences are scatter.

By UniProt entry, the sequences of proteins in these tests, tags left out. Where a name states a change or a piece, a line headed by the entry shows the natural chain unless it says otherwise.
UniProt Q8N1G0: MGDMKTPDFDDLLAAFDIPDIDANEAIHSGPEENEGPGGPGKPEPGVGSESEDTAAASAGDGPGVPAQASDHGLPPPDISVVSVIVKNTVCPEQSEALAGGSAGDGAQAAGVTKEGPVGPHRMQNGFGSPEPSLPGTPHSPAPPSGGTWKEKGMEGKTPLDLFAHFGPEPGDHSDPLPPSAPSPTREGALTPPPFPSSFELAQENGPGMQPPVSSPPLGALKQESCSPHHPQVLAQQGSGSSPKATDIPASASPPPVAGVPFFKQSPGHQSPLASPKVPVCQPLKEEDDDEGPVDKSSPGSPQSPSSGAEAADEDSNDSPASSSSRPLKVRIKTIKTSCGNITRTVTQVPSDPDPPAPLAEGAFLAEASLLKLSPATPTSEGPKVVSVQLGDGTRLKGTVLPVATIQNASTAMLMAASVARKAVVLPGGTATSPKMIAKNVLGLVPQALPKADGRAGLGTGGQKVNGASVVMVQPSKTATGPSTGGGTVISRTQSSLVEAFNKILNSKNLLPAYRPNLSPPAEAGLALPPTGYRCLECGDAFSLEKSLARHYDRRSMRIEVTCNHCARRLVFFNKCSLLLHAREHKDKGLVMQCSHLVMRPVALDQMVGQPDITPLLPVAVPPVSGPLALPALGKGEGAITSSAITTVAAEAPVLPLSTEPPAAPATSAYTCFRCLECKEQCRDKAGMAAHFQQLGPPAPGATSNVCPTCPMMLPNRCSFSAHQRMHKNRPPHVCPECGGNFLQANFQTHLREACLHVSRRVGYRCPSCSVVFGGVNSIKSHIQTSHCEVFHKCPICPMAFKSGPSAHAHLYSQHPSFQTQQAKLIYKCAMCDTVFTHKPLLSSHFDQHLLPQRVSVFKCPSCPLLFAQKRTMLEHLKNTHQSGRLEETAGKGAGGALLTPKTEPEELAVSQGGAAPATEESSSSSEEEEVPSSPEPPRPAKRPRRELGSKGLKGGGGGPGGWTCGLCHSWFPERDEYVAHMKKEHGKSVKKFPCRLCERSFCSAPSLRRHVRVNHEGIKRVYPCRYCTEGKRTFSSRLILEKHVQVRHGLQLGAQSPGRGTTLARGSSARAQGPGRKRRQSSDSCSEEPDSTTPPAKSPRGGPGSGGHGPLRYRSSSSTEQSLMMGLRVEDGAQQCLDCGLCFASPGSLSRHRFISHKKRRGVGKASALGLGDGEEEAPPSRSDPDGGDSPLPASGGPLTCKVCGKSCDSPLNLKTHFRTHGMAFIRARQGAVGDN
UniProt Q8N999, whole entry: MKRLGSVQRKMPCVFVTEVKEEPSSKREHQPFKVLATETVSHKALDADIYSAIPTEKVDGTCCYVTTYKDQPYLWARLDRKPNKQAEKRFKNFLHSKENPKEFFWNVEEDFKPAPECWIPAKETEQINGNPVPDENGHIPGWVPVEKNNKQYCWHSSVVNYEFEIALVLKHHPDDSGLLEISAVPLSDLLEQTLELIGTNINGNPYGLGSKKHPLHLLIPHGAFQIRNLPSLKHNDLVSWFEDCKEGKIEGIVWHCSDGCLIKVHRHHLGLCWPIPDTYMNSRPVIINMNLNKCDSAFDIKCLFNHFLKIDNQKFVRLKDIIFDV
UniProt Q8N7B6: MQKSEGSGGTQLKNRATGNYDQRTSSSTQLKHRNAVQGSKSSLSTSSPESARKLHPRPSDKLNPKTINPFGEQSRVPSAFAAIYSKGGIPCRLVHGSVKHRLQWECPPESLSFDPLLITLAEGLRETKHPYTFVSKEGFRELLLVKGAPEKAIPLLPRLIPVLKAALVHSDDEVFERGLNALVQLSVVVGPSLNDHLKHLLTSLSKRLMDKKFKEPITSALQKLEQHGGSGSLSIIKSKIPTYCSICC
UniProt Q8NBF2: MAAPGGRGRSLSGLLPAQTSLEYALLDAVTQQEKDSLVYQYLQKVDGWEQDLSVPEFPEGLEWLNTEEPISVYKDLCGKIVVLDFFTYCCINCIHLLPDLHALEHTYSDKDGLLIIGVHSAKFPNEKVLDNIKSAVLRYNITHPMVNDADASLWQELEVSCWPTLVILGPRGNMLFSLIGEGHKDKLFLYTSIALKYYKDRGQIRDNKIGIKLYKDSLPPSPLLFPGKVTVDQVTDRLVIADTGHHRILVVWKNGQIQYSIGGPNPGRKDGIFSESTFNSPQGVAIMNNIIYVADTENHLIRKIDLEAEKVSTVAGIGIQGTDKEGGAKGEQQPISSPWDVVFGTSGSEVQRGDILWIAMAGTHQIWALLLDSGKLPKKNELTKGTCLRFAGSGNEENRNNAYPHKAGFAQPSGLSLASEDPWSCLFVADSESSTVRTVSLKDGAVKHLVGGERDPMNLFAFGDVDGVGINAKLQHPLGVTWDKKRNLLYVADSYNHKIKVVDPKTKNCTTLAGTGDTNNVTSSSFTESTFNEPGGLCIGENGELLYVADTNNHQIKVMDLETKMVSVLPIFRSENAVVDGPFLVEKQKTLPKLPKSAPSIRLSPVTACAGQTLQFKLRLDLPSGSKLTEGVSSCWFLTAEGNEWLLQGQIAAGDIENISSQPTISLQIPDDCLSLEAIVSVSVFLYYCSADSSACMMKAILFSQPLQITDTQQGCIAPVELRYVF
UniProt Q8N7X0: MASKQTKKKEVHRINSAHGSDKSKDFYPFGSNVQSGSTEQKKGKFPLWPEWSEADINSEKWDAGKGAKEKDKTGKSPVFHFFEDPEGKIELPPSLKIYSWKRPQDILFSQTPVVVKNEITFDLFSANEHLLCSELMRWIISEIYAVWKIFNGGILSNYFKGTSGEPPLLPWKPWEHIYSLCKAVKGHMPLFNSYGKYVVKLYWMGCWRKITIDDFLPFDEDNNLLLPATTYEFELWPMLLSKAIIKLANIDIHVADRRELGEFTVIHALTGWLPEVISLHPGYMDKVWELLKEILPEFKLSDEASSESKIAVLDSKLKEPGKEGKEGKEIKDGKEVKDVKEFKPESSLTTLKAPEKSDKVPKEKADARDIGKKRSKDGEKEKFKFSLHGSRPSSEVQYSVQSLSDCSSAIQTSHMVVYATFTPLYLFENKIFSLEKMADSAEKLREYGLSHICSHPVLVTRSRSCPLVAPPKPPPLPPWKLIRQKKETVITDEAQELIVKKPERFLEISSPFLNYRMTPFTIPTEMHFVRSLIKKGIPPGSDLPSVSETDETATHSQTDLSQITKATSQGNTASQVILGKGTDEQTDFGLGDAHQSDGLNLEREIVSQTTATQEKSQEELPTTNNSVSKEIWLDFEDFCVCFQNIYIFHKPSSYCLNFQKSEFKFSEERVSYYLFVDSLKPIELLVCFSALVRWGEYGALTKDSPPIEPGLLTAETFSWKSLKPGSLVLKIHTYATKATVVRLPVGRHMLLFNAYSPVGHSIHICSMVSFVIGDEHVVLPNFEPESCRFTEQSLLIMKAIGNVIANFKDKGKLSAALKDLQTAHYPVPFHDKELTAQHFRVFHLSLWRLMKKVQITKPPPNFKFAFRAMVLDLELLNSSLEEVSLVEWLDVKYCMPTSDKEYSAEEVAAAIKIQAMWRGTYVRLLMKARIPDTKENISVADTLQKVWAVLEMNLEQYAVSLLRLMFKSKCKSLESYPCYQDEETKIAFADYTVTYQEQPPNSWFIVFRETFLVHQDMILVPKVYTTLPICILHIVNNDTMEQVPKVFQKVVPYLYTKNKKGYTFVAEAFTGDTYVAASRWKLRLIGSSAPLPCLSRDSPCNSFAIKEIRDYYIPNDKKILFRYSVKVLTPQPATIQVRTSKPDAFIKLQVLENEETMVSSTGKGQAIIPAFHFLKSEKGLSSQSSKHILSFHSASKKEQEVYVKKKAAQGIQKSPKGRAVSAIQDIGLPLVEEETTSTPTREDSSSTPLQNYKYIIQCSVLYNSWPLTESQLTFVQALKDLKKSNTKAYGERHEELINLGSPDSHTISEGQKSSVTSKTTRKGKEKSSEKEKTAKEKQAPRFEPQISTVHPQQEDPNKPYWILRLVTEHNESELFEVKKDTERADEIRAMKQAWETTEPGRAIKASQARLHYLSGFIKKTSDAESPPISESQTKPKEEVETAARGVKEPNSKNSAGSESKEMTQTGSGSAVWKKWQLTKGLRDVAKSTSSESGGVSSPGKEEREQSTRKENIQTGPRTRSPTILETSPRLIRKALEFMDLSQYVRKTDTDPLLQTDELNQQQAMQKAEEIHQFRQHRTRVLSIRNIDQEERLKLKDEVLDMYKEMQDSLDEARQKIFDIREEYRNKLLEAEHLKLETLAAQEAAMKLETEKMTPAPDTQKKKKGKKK
UniProt Q8NHS0: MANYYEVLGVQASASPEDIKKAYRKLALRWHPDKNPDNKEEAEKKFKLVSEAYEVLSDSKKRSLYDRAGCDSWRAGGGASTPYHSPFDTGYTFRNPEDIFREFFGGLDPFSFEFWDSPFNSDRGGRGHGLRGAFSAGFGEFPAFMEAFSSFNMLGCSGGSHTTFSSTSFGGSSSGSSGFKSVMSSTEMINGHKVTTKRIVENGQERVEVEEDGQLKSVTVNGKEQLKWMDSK
UniProt Q8NEZ5: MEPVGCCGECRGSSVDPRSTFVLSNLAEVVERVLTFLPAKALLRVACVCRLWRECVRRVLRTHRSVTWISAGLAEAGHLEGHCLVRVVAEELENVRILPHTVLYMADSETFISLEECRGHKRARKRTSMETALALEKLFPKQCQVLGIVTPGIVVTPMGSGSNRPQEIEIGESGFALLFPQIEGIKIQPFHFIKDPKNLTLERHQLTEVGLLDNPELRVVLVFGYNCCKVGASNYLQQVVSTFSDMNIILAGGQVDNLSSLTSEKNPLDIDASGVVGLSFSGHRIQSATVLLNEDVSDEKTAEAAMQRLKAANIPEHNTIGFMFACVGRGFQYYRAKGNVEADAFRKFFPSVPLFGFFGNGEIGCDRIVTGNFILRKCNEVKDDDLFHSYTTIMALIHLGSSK
UniProt Q8NFH4: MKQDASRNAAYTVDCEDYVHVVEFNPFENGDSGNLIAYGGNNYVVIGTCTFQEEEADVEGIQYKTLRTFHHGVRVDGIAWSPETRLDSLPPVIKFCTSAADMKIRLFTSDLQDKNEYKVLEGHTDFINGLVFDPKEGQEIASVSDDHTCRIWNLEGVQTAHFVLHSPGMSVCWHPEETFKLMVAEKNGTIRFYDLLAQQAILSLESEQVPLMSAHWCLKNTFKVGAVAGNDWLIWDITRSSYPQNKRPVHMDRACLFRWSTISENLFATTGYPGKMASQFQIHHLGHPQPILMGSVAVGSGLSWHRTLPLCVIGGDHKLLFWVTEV
UniProt Q8N6N3: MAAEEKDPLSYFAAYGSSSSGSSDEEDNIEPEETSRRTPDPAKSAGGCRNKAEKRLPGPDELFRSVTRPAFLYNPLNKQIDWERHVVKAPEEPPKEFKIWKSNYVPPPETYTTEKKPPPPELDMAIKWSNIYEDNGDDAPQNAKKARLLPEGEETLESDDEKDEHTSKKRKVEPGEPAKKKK
UniProt Q8NFU5: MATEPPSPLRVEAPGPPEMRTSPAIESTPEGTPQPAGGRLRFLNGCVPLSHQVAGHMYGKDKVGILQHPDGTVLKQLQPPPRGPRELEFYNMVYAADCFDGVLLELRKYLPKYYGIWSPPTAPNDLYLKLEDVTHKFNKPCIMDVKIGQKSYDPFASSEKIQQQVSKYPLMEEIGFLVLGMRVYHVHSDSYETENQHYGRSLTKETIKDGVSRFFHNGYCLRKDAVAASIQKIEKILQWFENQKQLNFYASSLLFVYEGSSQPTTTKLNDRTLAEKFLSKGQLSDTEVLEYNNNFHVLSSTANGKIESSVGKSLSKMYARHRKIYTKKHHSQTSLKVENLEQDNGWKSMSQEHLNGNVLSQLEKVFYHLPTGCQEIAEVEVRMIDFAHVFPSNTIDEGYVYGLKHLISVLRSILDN
UniProt Q8N9M1: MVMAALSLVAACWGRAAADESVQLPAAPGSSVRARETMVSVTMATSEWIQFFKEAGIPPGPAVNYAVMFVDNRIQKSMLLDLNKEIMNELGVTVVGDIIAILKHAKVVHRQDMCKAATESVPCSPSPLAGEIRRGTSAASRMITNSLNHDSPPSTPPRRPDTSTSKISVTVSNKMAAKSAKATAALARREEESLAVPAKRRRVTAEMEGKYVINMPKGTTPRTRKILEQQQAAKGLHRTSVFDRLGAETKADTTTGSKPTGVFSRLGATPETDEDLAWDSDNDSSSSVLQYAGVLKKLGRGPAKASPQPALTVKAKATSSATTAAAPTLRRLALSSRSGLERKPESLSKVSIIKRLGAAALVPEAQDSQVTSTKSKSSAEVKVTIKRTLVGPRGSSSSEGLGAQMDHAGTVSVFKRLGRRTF
UniProt Q8N8R5: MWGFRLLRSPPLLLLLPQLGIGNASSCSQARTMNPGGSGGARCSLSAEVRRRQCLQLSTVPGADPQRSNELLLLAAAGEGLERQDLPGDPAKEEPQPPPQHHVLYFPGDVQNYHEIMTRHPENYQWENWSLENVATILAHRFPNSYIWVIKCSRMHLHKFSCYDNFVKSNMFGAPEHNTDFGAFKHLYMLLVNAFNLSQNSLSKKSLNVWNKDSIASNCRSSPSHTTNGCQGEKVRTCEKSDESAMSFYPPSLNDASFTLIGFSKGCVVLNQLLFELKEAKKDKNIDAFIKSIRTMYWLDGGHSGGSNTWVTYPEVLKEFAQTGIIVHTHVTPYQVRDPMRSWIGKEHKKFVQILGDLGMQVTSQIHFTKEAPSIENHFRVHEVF

compound: Cc1nc(Nc2ncc(C(=O)Nc3c(C)cccc3Cl)s2)cc(N2CCN(CCO)CC2)n1 [dasatinib]; experiment: log2 fold change of tryptic peptide abundance, ligand vs vehicle (limited proteolysis) (log2 ratio); higher = more trypsin-susceptible (destabilized); details: ligand concentration: 5 uM; sample: K562 cleared lysate

**Q.** For “CCNY (peptide sequence: SLFINHHPPGQIAR, peptide start residue: 83) (UniProt Q8ND76)”, which log2 fold change is on record?
**A.** -0.174

**Q.** With “VWDE (peptide sequence: NNVCVCREGYTGR, peptide start residue: 1471) (UniProt Q8N2E2)” as the target, how does the log2 fold change read?
**A.** 0.462

**Q.** Which log2 fold change does the source give for “TSEN2 (peptide sequence: AFTVVQPTFR, peptide start residue: 331) (UniProt Q8NCE0)” here?
**A.** -0.312

**Q.** With “ZNF687 (peptide sequence: KAVVLPGGTATSPK, peptide start residue: 422) (UniProt Q8N1G0)” as the target, how does the log2 fold change read?
**A.** 0.205

**Q.** “C12orf29 (peptide sequence: HPLHLLIPHGAFQIR, peptide start residue: 213) (UniProt Q8N999)” was tested. Which log2 fold change did it give?
**A.** -0.274

**Q.** “PACRGL (peptide sequence: TINPFGEQSR, peptide start residue: 66) (UniProt Q8N7B6)” was tested. Which log2 fold change did it give?
**A.** -0.295

**Q.** “NHLRC2 (peptide sequence: GNMLFSLIGEGHKDK, peptide start residue: 172) (UniProt Q8NBF2)” was tested. Which log2 fold change did it give?
**A.** -0.195

**Q.** “MRPL50 (peptide sequence: EKEPVVVETVEEK, peptide start residue: 33) (UniProt Q8N5N7)” was tested. Which log2 fold change did it give?
**A.** -0.191

**Q.** For “NUP43 (peptide sequence: TIDNADSSTLHAVTFLR, peptide start residue: 166) (UniProt Q8NFH3)”, which log2 fold change is on record?
**A.** -0.141

**Q.** For “UniProt Q8NBL1 (peptide sequence: WDLFREDLVR, peptide start residue: 184)”, which log2 fold change is on record?
**A.** 0.313

**Q.** With “ARFGAP1 (peptide sequence: KSPSSDSWTCADTSTERR, peptide start residue: 342) (UniProt Q8N6T3)” as the target, how does the log2 fold change read?
**A.** 0.117

**Q.** “UniProt Q8NAP3 (peptide sequence: TLAEHSYAVSSVAEAYR, peptide start residue: 217)” was tested. Which log2 fold change did it give?
**A.** 0.371

**Q.** “ADGB (peptide sequence: EILPEFK, peptide start residue: 293) (UniProt Q8N7X0)” was tested. Which log2 fold change did it give?
**A.** 0.0344

**Q.** Which log2 fold change does the source give for “FBH1 (peptide sequence: TVENIVLPR, peptide start residue: 1026) (UniProt Q8NFZ0)” here?
**A.** 0.188

**Q.** Which log2 fold change does the source give for “UniProt Q8NHS0 (peptide sequence: RIVENGQER, peptide start residue: 207)” here?
**A.** 0.655

**Q.** For “FBXO22 (peptide sequence: IVTGNFILR, peptide start residue: 368) (UniProt Q8NEZ5)”, which log2 fold change is on record?
**A.** -0.0859

**Q.** How did the log2 fold change turn out when “NUP37 (peptide sequence: TLPLCVIGGDHK, peptide start residue: 307) (UniProt Q8NFH4)” was run?
**A.** -0.302

**Q.** With “C1orf52 (peptide sequence: PAFLYNPLNK, peptide start residue: 69) (UniProt Q8N6N3)” as the target, how does the log2 fold change read?
**A.** -0.464

**Q.** With “TOR1AIP2 (peptide sequence: ADAHLGSSSVALPK, peptide start residue: 128) (UniProt Q8NFQ8)” as the target, how does the log2 fold change read?
**A.** -0.146

**Q.** Which log2 fold change does the source give for “FANCB (peptide sequence: VTLTPDSK, peptide start residue: 552) (UniProt Q8NB91)” here?
**A.** -0.286

**Q.** With “VPS8 (peptide sequence: FSYIDMDKELEFK, peptide start residue: 36) (UniProt Q8N3P4)” as the target, how does the log2 fold change read?
**A.** 0.222

**Q.** “IPMK (peptide sequence: VEAPGPPEMR, peptide start residue: 11) (UniProt Q8NFU5)” was tested. Which log2 fold change did it give?
**A.** -0.0914

**Q.** For “CAMKK1 (peptide sequence: MLDKNPETR, peptide start residue: 389) (UniProt Q8N5S9)”, which log2 fold change is on record?
**A.** -0.767

**Q.** “C19orf47 (peptide sequence: ADTTTGSKPTGVFSR, peptide start residue: 251) (UniProt Q8N9M1)” was tested. Which log2 fold change did it give?
**A.** -0.284

**Q.** “C2orf69 (peptide sequence: SSPSHTTNGCQGEK, peptide start residue: 221) (UniProt Q8N8R5)” was tested. Which log2 fold change did it give?
**A.** 0.32

**Q.** With “CMYA5 (peptide sequence: GASPIETSSK, peptide start residue: 1423) (UniProt Q8N3K9)” as the target, how does the log2 fold change read?
**A.** -0.117
